This test is described as follows: qHTS Assay for Lipid Storage Modulators in Drosophila S3 Cells.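 As to cell number change: cells counted by Cell Tracker Red CMTPX staining in the red channel.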 Conditions: BODIPY lipid droplet fluorescence, 18-24 h; for cell number change: measured here: cell count max response, cells fed with added oleic acid. Put shortly: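 Drosophila S3 cells loaded with oleic acid (400 uM, as added) and compounds at several concentrations; lipid droplets imaged by 488-nm laser-scanning cytometry, 500–530 nm intensity and object ratio to cell channel. Percent activity normalized to 20 uM Triacsin C.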
On the technique in general: Quantitative high-throughput screening tests each substance at several concentrations.

[1] abbreviates: measured here: lipid fluorescence (Fed channel) AC50, cells fed with added oleic acid.
Setting [2] is: measured here: cell number channel AC50, cells fed with added oleic acid.

In general, AC50 refers to the concentration giving half of the maximal activity seen. A low value points to greater potency.

The other results are listed elsewhere or left out. The main result of the screen is listed elsewhere. These columns were measured beside it and carry no call. The list favours compounds with an active or inconclusive main result. Potencies come from curve fits of mixed quality, noted in brackets.

In the case of `Cc1cccc(OCC(=O)N/N=C\c2cccn2C)c1C`, the cell number change is -16.6%.

Turning to `C/C(=N\NC(=O)c1ccccc1)c1ccccc1Br`, the AC50 under setting [1] is 29.1 µM [rising, single point].

For the compound `Cn1cc(CNCC2CCCO2)c(-c2ccc(Oc3ccccc3)cc2)n1` (centres undefined), the cell number change was determined as 7.43%. Also, the AC50 under setting [1] is 0.00517 µM [rising, full curve, poor fit].

In the case of `COc1ccc(CC(=O)N(Cc2ccccc2)c2ccc(C)cc2)cc1OC`, the cell number change is 5.41%.

With `Cc1ccnc(NCc2ccccc2O)c1`, the cell number change turned out to be 12.4%. In addition, under setting [1], the AC50 is 0.0366 µM [rising, single point].

Take `O=C(NCc1nnnn1-c1ccc(F)c(F)c1)c1cc2ccccc2o1`: the cell number change was 40.8%. Also, the concentration at half-maximal activity (AC50) under setting [2] is 5.17 µM [rising, full curve, poor fit].

`Cc1cc(NC(=O)c2ccc([N+](=O)[O-])cc2Cl)no1`: the AC50 under setting [2] was 1.46 µM [rising, partial curve, poor fit].

As to `C[n+]1ccccc1/C=N/O`, the cell number change stood at 5.71%. Also, the AC50 under setting [1] was 3.26 µM [falling, single point].

Turning to `CCOC(=O)N1CCc2c(sc3ncn(Cc4ccc(F)cc4)c(=O)c23)C1`, the cell number change turned out to be 20.4%. Also, the AC50 under setting [2] is 0.058 µM [rising, full curve, poor fit]. The AC50 under setting [1] is 0.411 µM [rising, full curve].

Take `CN1c2ccccc2C(=O)NC1c1ccc(Cl)cc1` (centres undefined): the cell number change came out at 15.2%. Also, the half-maximal activity concentration (AC50) under setting [2] is 4.61 µM [falling, single point]. In addition, the concentration at half-maximal activity (AC50) under setting [1] is 7.31 µM [falling, single point].

On to `CCOC(=O)C(CC(C)C)CP(=O)(O)CNC(=O)OCc1ccccc1` (centres undefined), for which the cell number change was -12%. For the same compound, under setting [1], the half-maximal activity concentration (AC50) was 3.26 µM [falling, single point].

As for `O=C(O)CC1=C(O)C(=O)N(c2ccccc2)C1c1ccc(Cl)cc1` (centres undefined), the cell number change was -26.3%. Besides, the concentration at half-maximal activity (AC50) under setting [1] is 29.1 µM [falling, single point].

Consider `CCCN(C(=O)c1cc(CC)c(C)s1)c1c(N)n(Cc2ccccc2)c(=O)[nH]c1=O`, for which the cell number change was -9.08%. Under setting [1], the AC50 was 7.31 µM [falling, partial curve].

Consider `Cc1ccc(SCC(=O)O/N=C(\N)c2cccnc2)cc1`, for which the cell number change is 9.54%.

With `CC(=O)c1c(C)[nH]c(C(=O)OCc2cc(=O)n3cc(Br)ccc3n2)c1C`, the cell number change is -25.4%. For the same compound, under setting [1], the concentration at half-maximal activity (AC50) was 4.11 µM [rising, partial curve, poor fit].

Consider `O=C1N/C(=C/c2ccc(Br)cc2)C(O)=C1C=NCc1ccccc1`, for which the cell number change was -46.5%. Moreover, the AC50 under setting [2] is 29.1 µM [falling, single point]. Besides, the half-maximal activity concentration (AC50) under setting [1] was 1.46 µM [rising, partial curve].

As to `CC(=O)NCCNc1ccc([N+](=O)[O-])cc1C#N`, the cell number change is -10.6%. The half-maximal activity concentration (AC50) under setting [2] was 6.51 µM [rising, partial curve, poor fit].

In the case of `O=C(CSc1ncn[nH]1)Nc1ccc2c(c1)OCCO2`, the cell number change came out at 21.8%. Moreover, under setting [1], the AC50 was 0.461 µM [falling, full curve, poor fit].

In the case of `O=S(=O)(CCOc1ccccc1)N1CCOCC1`, the cell number change was 1.64%. The AC50 under setting [1] was 0.103 µM [falling, full curve, poor fit].

For `O=C(CNC(=O)c1cnccn1)Nc1ccc(F)c(F)c1F`, the cell number change came to 45.9%. Under setting [2], the AC50 is 29.1 µM [rising, single point].

On to `CCC(C)[C@H](NC(=O)N1CCC(C)CC1)C(=O)O` (some centres undefined), for which the cell number change is -54.7%. Also, the AC50 under setting [2] is 1.84 µM [falling, partial curve]. Also, the half-maximal activity concentration (AC50) under setting [1] is 32.6 µM [falling, partial curve, poor fit].

As for `Cc1cc(OCCCC(=O)NNC(=O)c2ccncc2)ccc1Cl`, the cell number change turned out to be 15.6%. Also, the concentration at half-maximal activity (AC50) under setting [1] was 2.31 µM [rising, single point].

With `CCOC(=O)C1=C(Nc2ccccc2)CC(C)(O)C(C(=O)OCC)C1c1ccc(Br)cc1` (centres undefined), the cell number change is -28.5%. Under setting [1], the half-maximal activity concentration (AC50) is 18.4 µM [falling, partial curve].

Regarding `CC(=O)c1sc2nc(C)cc(C)c2c1N`, the cell number change was determined as 64.7%. Further, under setting [2], the AC50 was 6.51 µM [rising, full curve]. Moreover, under setting [1], the half-maximal activity concentration (AC50) was 7.31 µM [rising, partial curve].

For the compound `O=C(Oc1ccc(O)cc1)C12CC3CC(CC(C3)C1)C2`, the cell number change was -61.8%. Further, the half-maximal activity concentration (AC50) under setting [2] was 20.6 µM [falling, partial curve]. The concentration at half-maximal activity (AC50) under setting [1] is 20.6 µM [falling, partial curve].

`O=C(Nc1ccccc1Cl)c1ccccc1Cl`: the cell number change was -14.3%. Further, the half-maximal activity concentration (AC50) under setting [2] is 3.26 µM [rising, partial curve].

For the compound `CCOC(=O)C1(CCCc2ccccc2)CCN(C(=O)c2cc(C)nn2CC)CC1`, the cell number change was -11.6%. Also, the AC50 under setting [1] was 0.092 µM [rising, full curve, poor fit].

For `Cc1ccsc1C1C(C(=O)O)c2ccccc2C(=O)N1C` (centres undefined), the cell number change came to 13.1%. Moreover, the concentration at half-maximal activity (AC50) under setting [1] was 3.66 µM [falling, single point].

Regarding `CCCc1nnc(SCc2ccc(OC)cc2)n1N`, the cell number change worked out at 8.79%. In addition, under setting [1], the concentration at half-maximal activity (AC50) was 6.51 µM [falling, single point].

For `O=C(O)CCC(=O)N1N=C(c2ccco2)CC1c1ccco1` (centres undefined), the cell number change is -0.794%. The AC50 under setting [2] was 0.00651 µM [rising, full curve, poor fit].

Regarding `Cc1ccc(NC(=O)c2nn(C34CC5CC(CC(C5)C3)C4)cc2[N+](=O)[O-])cc1`, the cell number change is -24.7%. Besides, under setting [1], the AC50 is 13 µM [falling, partial curve].

Take `CN(CC(=O)N1CCN(c2ccc(F)cc2)CC1)S(=O)(=O)c1ccc(F)cc1`: the AC50 by setting is: under setting [2], 6.51 µM [falling, single point]; under setting [1], 0.13 µM [rising, full curve, poor fit].

For `NNC(=O)C1CC1c1ccc(Cl)cc1` (centres undefined), the cell number change was 17.7%. In addition, the AC50 under setting [1] was 18.4 µM [rising, single point].

Turning to `Cc1cccc(C)c1CC(=O)N1CCOCC1`, the cell number change amounted to 10.8%. Besides, the half-maximal activity concentration (AC50) under setting [1] is 0.82 µM [rising, full curve, poor fit].

On to `O=C(NCCc1ccccn1)C1CCCN1S(=O)(=O)c1ccc(Cl)cc1` (centres undefined), for which the cell number change is 10.1%.

For `COc1ccc(NC(=O)CSc2ccc(-c3ccco3)nn2)c(OC)c1`, the cell number change was found to be 13.3%.

As to `Cc1cc([N+](=O)[O-])cc(C)c1OCC(=O)N/N=C/c1ccc(OC(=O)c2ccccc2Br)cc1`, the cell number change was found to be 29.1%. Under setting [1], the AC50 was 16.4 µM [rising, single point].

Regarding `Cc1ccc(S(=O)(=O)Nc2c(NC3CCCCC3)c3ccccc3oc2=O)c(C)c1`, the cell number change came to 1.52%. In addition, under setting [1], the concentration at half-maximal activity (AC50) is 16.4 µM [rising, partial curve].

As to `CC(C)Nc1nc(NC(C)C)nc(N(C)C(N)=O)n1`, the AC50 under setting [1] was 3.26 µM [rising, partial curve].

Take `COc1ccccc1N1CCN(CC(=O)Nc2ccccc2C(=O)NC(C)c2ccccc2)CC1` (centres undefined): the cell number change is -13.3%. Under setting [1], the AC50 was 0.00461 µM [falling, full curve, poor fit].

Consider `O=C1C(Cl)=C(Nc2ccc3cn[nH]c3c2)C(=O)c2ccccc21`, for which the concentration at half-maximal activity (AC50) under setting [1] was 25.9 µM [falling, partial curve, poor fit].

Regarding `COc1ccc(C(=O)OCn2nnc3ccccc3c2=O)cc1[N+](=O)[O-]`, the cell number change was determined as 50.9%. For the same compound, the concentration at half-maximal activity (AC50) under setting [2] was 29.1 µM [rising, single point].

`O=C(/C=C\Nc1ccc2c(c1)OCO2)c1cccs1`: the cell number change is 2.03%. Under setting [1], the AC50 is 0.461 µM [rising, full curve, poor fit].

As for `Nc1ccc(Oc2ccc(Cl)cc2)cc1`, the cell number change was found to be 13.3%. For the same compound, the AC50 under setting [2] is 1.84 µM [rising, partial curve]. For the same compound, under setting [1], the AC50 is 3.26 µM [rising, partial curve].

For the compound `O=C(O)/C(=C\c1cccs1)c1ccc(F)cc1`, the cell number change is -20.8%. The AC50 under setting [2] is 0.461 µM [falling, single point].

With `COC(=O)c1ccccc1NC(=O)c1sc(N)nc1C`, the cell number change is -15.7%.

As for `CC(C)c1ccc(NC2CCCN(C(=O)CCCn3cncn3)C2)cc1` (centres undefined), the cell number change is -0.99%. For the same compound, the half-maximal activity concentration (AC50) under setting [1] was 29.1 µM [rising, single point].

Take `CCOC(=O)C(NC(=O)c1ccccc1)(OCc1ccc(F)cc1)C(F)(F)F` (centres undefined): the cell number change was -50.9%. Moreover, the AC50 under setting [2] is 8.2 µM [falling, partial curve]. The concentration at half-maximal activity (AC50) under setting [1] is 0.731 µM [falling, full curve].

Turning to `O=C(Cc1ccccc1)Nc1cc(C(=O)c2ccccc2)ccc1N1CCOCC1`, the concentration at half-maximal activity (AC50) under setting [2] is 0.411 µM [rising, partial curve, poor fit] and the concentration at half-maximal activity (AC50) under setting [1] is 2.06 µM [rising, partial curve].

As for `CS(=O)(=O)N(CC(=O)NCCSCc1ccccc1)c1ccccc1Br`, the cell number change is -14.8%.

Turning to `O=S(=O)(c1ccc(Cl)cc1)c1snnc1-c1ccccc1`, the cell number change stood at 21.7%.

`CCCS(=O)(=O)N1CCC(C(=O)NCCN(CC)c2ccccc2)CC1`: the AC50 under setting [1] is 0.58 µM [rising, single point].

With `CCCC(=O)C1=C(SCC)CC(C)(C)C(C(=O)OC)C1=O` (centres undefined), the cell number change is -21.8%. In addition, the concentration at half-maximal activity (AC50) under setting [2] was 0.651 µM [falling, full curve, poor fit]. Under setting [1], the AC50 is 14.6 µM [falling, single point].

On to `CNS(=O)(=O)c1cc(NC(=O)c2cncn2-c2ccccc2)ccc1C`, for which the cell number change is -11.8%.

In the case of `CCOc1ccc(CCNC(=O)COC(=O)c2cc(OC)c(OC)cc2[N+](=O)[O-])cc1OCC`, the cell number change was 66.7%. Further, the half-maximal activity concentration (AC50) under setting [2] is 9.2 µM [rising, partial curve].

On to `COc1ccc(-n2nc(C(=O)NCC(=O)NCc3cccc(F)c3)c3ccccc3c2=O)cc1Cl`, for which the cell number change is -45.2%. The AC50 under setting [1] was 9.2 µM [falling, single point].

With `O=C(CSc1nnc(CCCOc2ccc(Cl)cc2Cl)o1)Nc1ccc(C(=O)O)cc1`, the cell number change is 45%. In addition, under setting [2], the AC50 is 16.4 µM [rising, single point]. Also, the AC50 under setting [1] is 29.1 µM [rising, partial curve].

As for `N#CC1=C(c2ccccc2)/C(=C/c2ccccc2)OC1=O`, the cell number change was -18.7%.

As to `CCC(=O)N1c2ccccc2-c2nnc(SC)nc2OC1c1ccc(OC)c(OC)c1` (centres undefined), the cell number change is 17.7%. For the same compound, under setting [1], the AC50 is 0.0517 µM [rising, full curve, poor fit].

Consider `Fc1cccc(NC(=S)Nc2ccc(Br)cc2)c1`, for which the cell number change was -18.6%. For the same compound, the AC50 under setting [1] was 20.6 µM [falling, partial curve, poor fit].

As for `COc1ccc(C(=O)NNC(=O)CSc2nnc(-c3ccc(O)cc3)n2C)cc1`, the cell number change was -32.9%.

On to `Cc1cc(NC(=O)CSc2nc(N)c(NC(=O)c3ccc(F)c(F)c3)c(=O)[nH]2)no1`, for which the cell number change was 141%. Besides, under setting [2], the concentration at half-maximal activity (AC50) is 29.1 µM [rising, single point]. Under setting [1], the AC50 was 0.58 µM [falling, single point].

(Values after PubChem BioAssay AID2685 (National Center for Advancing Translational Sciences (NCATS), 2010).)
